{"source": "PubChem BioAssay AID686937 – Drosophila RNAi Screening Center – 2013", "screen": "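Knock-downs that reduce output of a secreted reporter enzyme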 (primary screen)", "cell system": "Drosophila S2 cells expressing secreted horseradish peroxidase", "knock-down reagent": "long dsRNA against Drosophila genes", "duration": "about 5.5 days (5 days dsRNA, then 12 h reporter induction)", "treatment": "reporter expression induced after 5 days of dsRNA, read 12 h later; inducer not stated", "measurement": "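Chemiluminescent measurement of peroxidase in the medium 12 h after reporter induction, following 5 days of dsRNA, given as a z-score per plate; higher means more secretion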", "direction": "z-score: higher = more reporter secreted into medium", "note": "The deposit covers about 23,000 reagents; shown is an unselected part of those with a known target gene and a result. 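Reduced-secretion tags in replicate 1 do not always agree with the z-scores; no criterion for assigning the tags was given.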 A plus sign joins genes that one reagent is predicted to hit. Further read-outs or replicates are left out here. Reagent sequences are not shown. Not given: the amount of reagent."}
{"gene": "Larp4B (GeneID 38399)", "dsRNA": "DRSC08192", "z-score, replicate 1": 0.27}
{"gene": "CG17027 (GeneID 39742)", "dsRNA": "DRSC10238", "z-score, replicate 1": 0.41}
{"gene": "CheB38a (GeneID 2768934)", "dsRNA": "DRSC03205", "z-score, replicate 1": -1.05}
{"gene": "mey (GeneID 43715)", "dsRNA": "DRSC14468", "z-score, replicate 1": 0.14}
{"gene": "TwdlG (GeneID 40535)", "dsRNA": "DRSC12229", "z-score, replicate 1": 0.26}
{"gene": "CG9497 (GeneID 33884)", "dsRNA": "DRSC03234", "z-score, replicate 1": -0.04}
{"gene": "Klp98A (GeneID 43310)", "dsRNA": "DRSC16724", "z-score, replicate 1": 0.19}
{"gene": "Klp98A (GeneID 43310)", "dsRNA": "DRSC21834", "z-score, replicate 1": -0.28}
{"gene": "CG43693 (GeneID 39231)", "dsRNA": "DRSC09086", "z-score, replicate 1": 0.02}
{"gene": "CG43693 (GeneID 39231)", "dsRNA": "DRSC10625", "z-score, replicate 1": 0.09}
{"gene": "CG4907 (GeneID 42686)", "dsRNA": "DRSC15673", "z-score, replicate 1": 0.42}
{"gene": "CG31038 (GeneID 43535)", "dsRNA": "DRSC15051", "z-score, replicate 1": 0.28}
{"gene": "CG31038 (GeneID 43535)", "dsRNA": "DRSC16326", "z-score, replicate 1": 0.2}
{"gene": "CG31038 (GeneID 43535)", "dsRNA": "DRSC16327", "z-score, replicate 1": -0.08}
{"gene": "Baldspot (GeneID 39860)", "dsRNA": "DRSC09671", "z-score, replicate 1": 0.29}
{"gene": "CG33502 + CG32857 + CG32500", "dsRNA": "DRSC20817", "z-score, replicate 1": -0.43}
{"gene": "CG33502 + CG32857 + CG32500", "dsRNA": "DRSC21038", "z-score, replicate 1": 0.12}

Individual results from above:
TwdlG (GeneID 40535) [DRSC12229], z-score, replicate 1 = 0.26
Value for Larp4B (GeneID 38399) [DRSC08192] under “z-score, replicate 1”: 0.27
